{"sequences": {"note": "Amino acid sequences for entries named in this document (tags omitted).", "UniProt O14744, whole entry": "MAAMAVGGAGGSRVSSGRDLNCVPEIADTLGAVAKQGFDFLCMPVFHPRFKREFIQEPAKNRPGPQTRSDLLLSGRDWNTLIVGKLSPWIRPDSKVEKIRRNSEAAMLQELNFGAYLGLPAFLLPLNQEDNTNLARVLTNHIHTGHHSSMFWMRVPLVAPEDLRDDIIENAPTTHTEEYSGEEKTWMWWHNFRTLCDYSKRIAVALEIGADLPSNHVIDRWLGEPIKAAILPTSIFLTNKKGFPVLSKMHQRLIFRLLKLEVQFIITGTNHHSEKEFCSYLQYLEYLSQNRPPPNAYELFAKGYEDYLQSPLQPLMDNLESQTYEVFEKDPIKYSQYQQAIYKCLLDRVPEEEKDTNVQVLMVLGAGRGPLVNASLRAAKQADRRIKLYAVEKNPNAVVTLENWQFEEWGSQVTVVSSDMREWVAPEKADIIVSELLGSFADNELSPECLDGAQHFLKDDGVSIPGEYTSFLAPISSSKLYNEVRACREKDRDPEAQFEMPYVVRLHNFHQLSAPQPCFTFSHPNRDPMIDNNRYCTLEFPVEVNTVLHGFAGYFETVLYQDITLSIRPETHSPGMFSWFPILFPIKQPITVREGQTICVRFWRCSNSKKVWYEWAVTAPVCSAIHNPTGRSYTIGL"}, "source": "patent US11369602B2", "about": "“Use of tadalafil as protein arginine methyltransferase (PRMT5) inhibitor” (Fourth Mil. Med. Univ. of People's Lib. Army, priority 2019, dated 2022)", "key": {"PRMT5": {"molecular_target": "T1, PRMT5 (Homo sapiens, UniProt O14744)", "T1 construct": "endogenous in cells; host or cells: MDA-MB-231 and T47D cells", "experiment": "Western blot of PRMT5 downstream substrates in breast cancer cells", "type": "cell-based", "settings": "MDA-MB-231 and T47D cells"}, "[1]": {"tested_on": "MDA-MB-231 breast cancer cells", "experiment": "Cell proliferation assay (MTT), Tadalafil in combination with Doxorubicin", "type": "cell-based", "settings": "Tadalafil 100 μM + Doxorubicin 0.2-1.6 μg/mL, MTT after 48 hours"}, "MDA-MB-231 tumor": {"tested_on": "MDA-MB-231 tumor", "experiment": "MDA-MB-231 xenograft tumor growth in immunodeficient mice", "type": "in vivo", "settings": "Tadalafil oral gavage 2 mg/kg once a day; Doxorubicin tail vein 2 mg/kg once a week; 25 days (FIG. 6)", "description": "Immunodeficient mice were seeded with MDA-MB-231 cells respectively. When tumor volumes reached 50-100 mm3, mice were given treatment selected from the following: PBS (Control, Ctrl), Tadalafil, Doxorubicin (DOX), Tadalafil in combination with Doxorubicin (DOX+Tadalafil). Tadalafil was administered by oral gavage (2 mg/kg, once a day) while Doxorubicin was administered by mouse tail vein injection (2 mg/kg, once a week). Body weights of mice and tumor volumes were measured every day for 25 days."}}, "note": "At least one structure is not confirmed: it was looked up by name or label, or the drawing left a doubt.", "data": [{"smiles": "CN1CC(=O)N2[C@H](c3ccc4c(c3)OCO4)c3[nH]c4ccccc4c3C[C@@H]2C1=O", "note": "[Tadalafil]", "values": [{"measurement": "expression levels of downstream substrates H4R3me2s and SDMA", "setting": "PRMT5; Tad 100 μM, 24 h, Western blot (FIG. 4A)", "result": "significantly decreased"}, {"measurement": "expression levels of PRMT5 and its downstream substrate H4R3me2s at different concentrations", "setting": "PRMT5; Western blot (FIG. 4B)", "result": "inhibited by Tadalafil in a dose dependent manner"}, {"measurement": "sensitivity of the breast cancer cells to Doxorubicin", "setting": "[1]", "result": "significantly increased sensitivity"}, {"measurement": "mouse tumor volume / tumor growth", "setting": "MDA-MB-231 tumor", "result": "inhibited tumor growth"}]}]}
